Reference: PubChem BioAssay AID1508588 (Peter MacCallum Cancer Centre, 2020)

Aim: 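Knock-downs boosting vemurafenib effects on melanoma cell growth or lactate release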 (primary screen)
Cells: human WM266.4 melanoma cells (BRAF V600 mutant)
Reagent: siRNA pool against human genes, 40 nM
Duration: 96 h from transfection to read-out
Challenge: vemurafenib 300 nM (about IC25), added 48 h after transfection, for 48 h; comparison arm got DMSO vehicle only
Detection: 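Ratios to non-targeting siRNA for cell gain, counted as DAPI nuclei after minus before drug and averaged over two replicates, and for absorbance-read medium lactate per cell; both binned into fold-change classes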
Direction: cell gain with vemurafenib: higher = more cell gain than with non-targeting siRNA; lactate per cell with vemurafenib: higher = more lactate made per cell
Active means: 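Enhancement is called by pairing each knock-down's vehicle-arm and drug-arm fold-change classes for viability or glycolysis; which class combinations qualify is not given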
Meaning of the calls: active = enhances vemurafenib effect; inactive = no enhancement seen
The whole screen tested about 18,000 reagents; shown is a part drawn at random. 790 of all reagents (4.4%) were called active. 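Calls rest on a combination of fold-change classes in drug and vehicle arms, not all shown here.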

The first 4 records, ahead of the listing:
gene knocked down | cell gain with vemurafenib | lactate per cell with vemurafenib | Call
NPTXR (neuronal pentraxin receptor) | 0.5 | 0.56 | inactive
PTPRN (protein tyrosine phosphatase receptor type N) | 0.19 | 1.08 | inactive
ACOT12 (acyl-CoA thioesterase 12) | 0.56 | 0.65 | inactive
CTAGE6 (CTAGE family member 6) | 0.32 | 1.58 | inactive

The list itself, from the first entry:
gene knocked down | cell gain with vemurafenib | lactate per cell with vemurafenib | Call
NPTXR (neuronal pentraxin receptor) | 0.5 | 0.56 | inactive
PTPRN (protein tyrosine phosphatase receptor type N) | 0.19 | 1.08 | inactive
ACOT12 (acyl-CoA thioesterase 12) | 0.56 | 0.65 | inactive
CTAGE6 (CTAGE family member 6) | 0.32 | 1.58 | inactive
CDKL4 (cyclin dependent kinase like 4) | 0.56 | 0.7 | inactive
ARHGAP11A (Rho GTPase activating protein 11A) | 0.45 | 1.87 | inactive
ARID4A (AT-rich interaction domain 4A) | 0.38 | 0.97 | inactive
ACO2 (aconitase 2) | 0.41 | 0.97 | inactive
SERPINB6 (serpin family B member 6) | 0.81 | 0.78 | inactive
MYH1 (myosin heavy chain 1) | 0.47 | 1.2 | inactive
CHST14 (carbohydrate sulfotransferase 14) | 0.5 | 0.88 | inactive
AP3B2 (adaptor related protein complex 3 subunit beta 2) | 0.59 | 1.36 | inactive
ITGA6 (integrin subunit alpha 6) | 0.69 | 1.21 | inactive
FBXW8 (F-box and WD repeat domain containing 8) | 0.71 | 0.92 | inactive
GLT6D1 (glycosyltransferase 6 domain containing 1) | 1.02 | 0.9 | inactive
NFKBIB (NFKB inhibitor beta) | 0.45 | 2.07 | inactive
MYL12B (myosin light chain 12B) | 1.02 | 0.58 | inactive
CCNG2 (cyclin G2) | 0.6 | 1.04 | inactive
KLRC3 (killer cell lectin like receptor C3) | 0.1 | 2.95 | inactive
ARMCX5 (armadillo repeat containing X-linked 5) | 0.04 | 0.3 | active
TSGA10IP (testis specific 10 interacting protein) | 1.07 | 0.62 | inactive
GHRH (growth hormone releasing hormone) | 0.41 | 1.4 | inactive
ZNF513 (zinc finger protein 513) | 0.12 | 1.25 | inactive
LXN (latexin) | 0.44 | 1.35 | inactive
H2BC11 (H2B clustered histone 11) | 0.72 | 0.92 | inactive
EIF2AK2 (eukaryotic translation initiation factor 2 alpha kinase 2) | 0.7 | 0.46 | inactive
UBR5 (ubiquitin protein ligase E3 component n-recognin 5) | 0.28 | 0.39 | inactive
FSTL3 (follistatin like 3) | -0.03 | 3.73 | inactive
BRD1 (bromodomain containing 1) | 0.78 | 0.68 | inactive
SH3GLB1 (SH3 domain containing GRB2 like, endophilin B1) | 0.12 | 1.27 | inactive
SAE1 (SUMO1 activating enzyme subunit 1) | 0.72 | 0.69 | inactive
HAT1 (histone acetyltransferase 1) | 0.96 | 0.6 | inactive
AIRIM (AFG2 interacting ribosome maturation factor) | 0.65 | 0.73 | inactive
GAGE4 (G antigen 4) | 0.74 | 0.86 | inactive
